Measurements taken from patent USRE42930E1 (Bristol-Myers Squibb Company, priority 2006, dated 2011).

Assay: general procedure: Fmoc solid-phase peptide synthesis; H-Cys(4-methoxytrityl)-2-chlorotrityl-resin; PyBOP
Details: conjugation step, analytical HPLC

(S)-2-(4-((2-amino-4-oxo-3,4-dihydropteridin-6-yl)methylamino)benzamido)-5-((S)-3-carboxy-1-((S)-1-((S)-3-carboxy-1-((R)-1-carboxy-2-(2-(2-((2-((1S,3S,7S,10R,11S,12S,16R)-7,11-dihydroxy-8,8,10,12-tetramethyl-3-((E)-1-(2-methylthiazol-4-yl)prop-1-en-2-yl)-5,9-dioxo-4-oxa-17-aza-bicyclo[14.1.0]heptadecan-17-yl)ethoxy)carbonyloxy)ethyl)disulfanyl)ethylamino)-1-oxopropan-2-ylamino)-5-guanidino-1-oxopentan-2-ylamino)-1-oxopropan-2-ylamino)-5-oxopentanoic acid
final HPLC purity: >98%
